At least one structure is not confirmed: it was looked up by name or label, or the drawing left a doubt.
Test system: CRE response element
Test: Beta-Lactamase reporter assay in HEK-CRE cell line
Format: cell-based
Conditions: 10 uM, data not shown

C=C[C@@]1(C)CC(=O)[C@]2(O)[C@@]3(C)[C@@H](O)CCC(C)(C)[C@@H]3[C@H](O)[C@H](OC(C)=O)[C@@]2(C)O1 [Forskolin]
activation of CRE and induction of Beta-Lactamase: activates CRE and induces Beta-Lactamase

From US7531310B2, “Methods of diagnosing Crohn's disease by measuring expression level of RNA encoding human G-protein coupled receptor, HGPRBMY11” (Bristol-Myers Squibb Company, priority 2000, dated 2009)
